Reference: US20150157783A1, “METHOD TO SELECTIVELY BIND AND EXTRACT PHOSPHATE” (priority 2013, published 2015)

Assays:
[1] = Extraction of aqueous (Bu4N+)2HPO4 2− into CDCl3 receptor solution (NMR); conditions: for % Bu4N^+ extracted from (Bu4N^+)2HPO4^2−: 2 equivalents of receptor, 2 mM in CDCl3
[2] = 2 equivalents of receptor, 2 mM in CDCl3

For `FC(F)(F)c1cc(NC(=S)Nc2ccccc2-c2cc(-c3ccccc3NC(=S)Nc3cc(C(F)(F)F)cc(C(F)(F)F)c3)cc(-c3ccccc3NC(=S)Nc3cc(C(F)(F)F)cc(C(F)(F)F)c3)c2)cc(C(F)(F)F)c1` [2-tris, 1,3,5-tris[2-(3-(3,5-Trifluoromethylphenyl)thioureido)phenyl]benzene], the “bound receptor in the organic layer” value ([1]; 100 μM dibasic phosphate in aqueous solution) was 10%, the “% Bu4N^+ extracted from (Bu4N^+)2HPO4^2−” value ([1]; C0(aq) 0.10 mM) was 20% and the “% Bu4N^+ extracted from (Bu4N^+)2HPO4^2−” value ([1]; C0(aq) 0.33 mM) was 38%. The “% Bu4N^+ extracted from (Bu4N^+)2HPO4^2−” value ([1]; C0(aq) 1.0 mM) was 51%, the “% Bu4N^+ extracted from (Bu4N^+)2HPO4^2−” value ([1]; C0(aq) 10 mM) was 87% and the “% Bu4N^+ extracted from Bu4N^+H2PO4^−” value ([2]; C0(aq) 1.0 mM) was 30%. The “% Bu4N^+ extracted from Bu4N^+H2PO4^−” value ([2]; C0(aq) 10 mM) was 55%.

Like-named read-outs stand apart in the source and are kept apart here.
